The results in this text go back to article PMC10396025.

By UniProt entry, the sequences of proteins in these tests, tags left out.
UniProt P97496: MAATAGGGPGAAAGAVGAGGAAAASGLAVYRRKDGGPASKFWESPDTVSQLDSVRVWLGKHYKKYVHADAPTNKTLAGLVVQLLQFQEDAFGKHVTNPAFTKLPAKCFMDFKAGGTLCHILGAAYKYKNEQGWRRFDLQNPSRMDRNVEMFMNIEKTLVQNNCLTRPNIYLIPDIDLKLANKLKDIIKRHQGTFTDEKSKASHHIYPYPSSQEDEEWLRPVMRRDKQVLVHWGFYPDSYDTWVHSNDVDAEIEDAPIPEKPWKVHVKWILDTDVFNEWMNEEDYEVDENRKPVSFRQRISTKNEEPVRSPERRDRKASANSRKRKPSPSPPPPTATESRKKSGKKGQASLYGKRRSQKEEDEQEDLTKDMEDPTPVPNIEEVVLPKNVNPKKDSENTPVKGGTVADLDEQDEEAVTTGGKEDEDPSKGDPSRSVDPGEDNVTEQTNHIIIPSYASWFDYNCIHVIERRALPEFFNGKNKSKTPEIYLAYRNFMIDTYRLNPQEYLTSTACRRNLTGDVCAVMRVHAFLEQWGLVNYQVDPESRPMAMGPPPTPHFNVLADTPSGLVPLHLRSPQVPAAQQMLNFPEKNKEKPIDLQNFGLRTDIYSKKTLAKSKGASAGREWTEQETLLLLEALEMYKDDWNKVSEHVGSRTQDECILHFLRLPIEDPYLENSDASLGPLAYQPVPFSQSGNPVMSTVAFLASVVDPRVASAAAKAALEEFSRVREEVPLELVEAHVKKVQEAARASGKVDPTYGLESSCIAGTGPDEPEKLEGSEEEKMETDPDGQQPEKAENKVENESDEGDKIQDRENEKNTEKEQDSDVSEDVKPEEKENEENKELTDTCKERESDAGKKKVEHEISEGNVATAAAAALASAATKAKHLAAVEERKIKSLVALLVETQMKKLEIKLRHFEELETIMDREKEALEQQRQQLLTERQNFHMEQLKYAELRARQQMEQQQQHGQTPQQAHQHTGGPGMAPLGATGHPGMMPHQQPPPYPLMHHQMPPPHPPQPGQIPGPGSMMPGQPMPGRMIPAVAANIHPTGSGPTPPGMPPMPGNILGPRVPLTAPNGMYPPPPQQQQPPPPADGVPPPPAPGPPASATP
UniProt P42227: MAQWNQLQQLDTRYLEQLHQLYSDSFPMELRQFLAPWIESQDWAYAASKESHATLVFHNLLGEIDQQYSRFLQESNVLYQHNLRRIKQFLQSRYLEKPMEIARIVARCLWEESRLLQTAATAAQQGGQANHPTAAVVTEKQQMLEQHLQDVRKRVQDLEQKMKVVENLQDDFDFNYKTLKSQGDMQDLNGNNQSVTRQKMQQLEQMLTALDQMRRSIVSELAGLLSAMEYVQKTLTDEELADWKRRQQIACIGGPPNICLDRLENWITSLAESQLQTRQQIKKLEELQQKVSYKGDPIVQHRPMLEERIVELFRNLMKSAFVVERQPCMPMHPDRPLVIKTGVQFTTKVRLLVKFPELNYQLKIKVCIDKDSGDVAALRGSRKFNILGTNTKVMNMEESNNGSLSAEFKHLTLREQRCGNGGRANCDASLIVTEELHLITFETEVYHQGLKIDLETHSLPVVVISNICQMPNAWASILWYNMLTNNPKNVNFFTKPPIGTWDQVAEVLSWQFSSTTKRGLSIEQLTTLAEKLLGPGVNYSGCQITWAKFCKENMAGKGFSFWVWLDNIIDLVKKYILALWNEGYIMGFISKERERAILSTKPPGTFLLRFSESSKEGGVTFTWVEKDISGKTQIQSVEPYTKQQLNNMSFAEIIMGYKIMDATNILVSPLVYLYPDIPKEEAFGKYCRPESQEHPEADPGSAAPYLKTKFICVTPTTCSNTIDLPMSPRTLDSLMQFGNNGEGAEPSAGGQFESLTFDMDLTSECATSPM

In the assay the target is Brg1/Brm-associated factor 155 (Baf155)-His (UniProt P97496). Put plainly: co-IP; C2C12 cells co-transfected with His-tagged Baf155 constructs and STAT3 constructs; lysates (Pierce Co-IP lysis buffer, sonication) precipitated with Ni-NTA agarose overnight at 4°C; washed 6 times with 20 mM Tris, 150 mM NaCl, 20 mM imidazole pH 8.0; western blot.

These are yes or no findings as the source states them, for the method shown. In cells and extracts the contact can be indirect. Some binding calls cover weakened binding; strength is not graded here.

As to “signal transducer and activator of transcription 3 (STAT3)-Flag (from UniProt P42227 1-770)”, the binding entry is reported as “binds”.
